Experimental data: patent US20050064382A1, “Method of prevention of lysosomal leakage in eukaryotic cells by using 6-methyluracil based water-soluble compounds and method of producing thereof” (priority 2002, published 2005)

System: Baltic sprats (small herring)
Experiment: Maturation (proteolytic decay) of salted fish in storage
Settings: 6 degrees C.

complex of 2,4-dihydroxy-6-methylpyrimidine with N-methyl-D-glucamine [Glucural]
maturation of salted fish delayed by (another of 5 concentrations (5-100 mg/kg of fish)): 7.5 months | maturation of salted fish retarded to (one of 5 concentrations (5-100 mg/kg of fish)): 5 months
